# Results of single-concentration screens

Protein sequences, listed by entry. Tags and fused reporters are not part of them. Residues count along the entry.
UniProt P9WFT3, whole entry: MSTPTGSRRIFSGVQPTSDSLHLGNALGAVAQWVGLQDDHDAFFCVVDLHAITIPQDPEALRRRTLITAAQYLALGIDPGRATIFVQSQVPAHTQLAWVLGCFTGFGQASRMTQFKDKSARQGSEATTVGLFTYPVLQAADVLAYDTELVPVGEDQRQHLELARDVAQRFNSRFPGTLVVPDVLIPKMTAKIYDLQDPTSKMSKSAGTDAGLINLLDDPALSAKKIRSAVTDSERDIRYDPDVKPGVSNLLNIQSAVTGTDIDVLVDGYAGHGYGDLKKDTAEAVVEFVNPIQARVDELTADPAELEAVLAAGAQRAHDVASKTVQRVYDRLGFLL
UniProt Q8IDJ8, 1-583: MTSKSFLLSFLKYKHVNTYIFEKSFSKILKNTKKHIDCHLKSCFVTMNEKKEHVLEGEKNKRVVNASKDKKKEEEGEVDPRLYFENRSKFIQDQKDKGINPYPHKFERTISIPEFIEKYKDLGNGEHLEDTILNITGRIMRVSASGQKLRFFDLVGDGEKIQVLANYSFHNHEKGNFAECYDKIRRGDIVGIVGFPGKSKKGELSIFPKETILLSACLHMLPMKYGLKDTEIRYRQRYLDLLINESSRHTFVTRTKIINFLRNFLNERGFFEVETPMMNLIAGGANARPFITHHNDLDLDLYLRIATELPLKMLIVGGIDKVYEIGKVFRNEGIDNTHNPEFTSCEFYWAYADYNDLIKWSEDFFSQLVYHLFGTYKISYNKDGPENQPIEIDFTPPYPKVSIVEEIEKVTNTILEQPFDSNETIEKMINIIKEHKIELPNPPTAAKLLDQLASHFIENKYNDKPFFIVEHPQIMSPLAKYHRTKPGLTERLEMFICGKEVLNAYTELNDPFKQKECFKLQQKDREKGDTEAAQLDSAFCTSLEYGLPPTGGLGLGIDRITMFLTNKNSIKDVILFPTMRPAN
UniProt P9WNZ1, whole entry: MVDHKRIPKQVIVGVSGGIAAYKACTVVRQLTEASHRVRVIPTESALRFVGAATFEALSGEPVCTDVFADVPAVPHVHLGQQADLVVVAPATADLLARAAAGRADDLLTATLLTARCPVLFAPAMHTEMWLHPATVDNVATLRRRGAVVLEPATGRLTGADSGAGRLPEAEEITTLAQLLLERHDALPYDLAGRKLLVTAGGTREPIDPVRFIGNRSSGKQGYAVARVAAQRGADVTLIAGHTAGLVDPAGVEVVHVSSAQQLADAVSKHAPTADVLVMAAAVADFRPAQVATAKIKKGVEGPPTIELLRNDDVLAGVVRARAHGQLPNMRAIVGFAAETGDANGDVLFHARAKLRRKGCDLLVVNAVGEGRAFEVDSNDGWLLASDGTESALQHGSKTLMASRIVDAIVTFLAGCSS
UniProt P9WPC5, whole entry: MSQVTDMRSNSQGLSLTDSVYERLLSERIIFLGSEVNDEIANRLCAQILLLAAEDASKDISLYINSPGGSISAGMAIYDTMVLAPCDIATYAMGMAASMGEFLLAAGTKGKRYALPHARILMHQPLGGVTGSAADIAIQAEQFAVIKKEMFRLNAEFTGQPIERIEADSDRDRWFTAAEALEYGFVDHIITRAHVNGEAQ
UniProt P9WPC3, whole entry partner: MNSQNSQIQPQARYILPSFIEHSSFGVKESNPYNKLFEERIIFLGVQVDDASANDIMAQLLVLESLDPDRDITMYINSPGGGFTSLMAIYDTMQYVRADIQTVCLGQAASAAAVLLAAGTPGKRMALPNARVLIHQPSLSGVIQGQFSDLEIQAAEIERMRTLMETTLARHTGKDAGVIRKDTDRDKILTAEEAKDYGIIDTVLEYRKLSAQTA
UniProt Q4DA54, 1-478: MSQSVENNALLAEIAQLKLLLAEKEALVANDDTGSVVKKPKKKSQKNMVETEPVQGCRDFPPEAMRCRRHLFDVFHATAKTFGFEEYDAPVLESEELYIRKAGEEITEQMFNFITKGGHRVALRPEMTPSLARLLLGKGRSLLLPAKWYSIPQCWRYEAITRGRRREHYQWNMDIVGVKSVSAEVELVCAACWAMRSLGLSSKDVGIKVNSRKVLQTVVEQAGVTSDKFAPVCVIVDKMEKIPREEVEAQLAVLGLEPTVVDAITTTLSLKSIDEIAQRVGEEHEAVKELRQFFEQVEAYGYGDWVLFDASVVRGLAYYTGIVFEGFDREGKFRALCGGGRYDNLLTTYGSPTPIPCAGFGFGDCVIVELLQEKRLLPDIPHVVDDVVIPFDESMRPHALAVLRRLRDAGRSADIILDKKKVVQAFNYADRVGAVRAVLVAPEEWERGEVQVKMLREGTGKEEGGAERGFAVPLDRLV

Measurements from “University of Dundee, Small-Polar-MMV Screening Library” (2021), ChEMBL document CHEMBL3988442.

Values are the deposited “Percent Effect”, in %. The record does not define 0% and 100%; most values in the screen are far below 50% and negative numbers occur (in some assays of this library far below -100). Compounds were drawn at random from those tested, without regard to their results.

A: 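Enzyme assay of tryptophanyl-tRNA synthetase; the read-out is not stated. Target: Tryptophan-tRNA ligase, Mycobacterium tuberculosis (UniProt P9WFT3). Tested at 10 µM. Higher most likely means stronger inhibition; the record gives no direction and few retests gave an IC50. Size under these conditions: about 65,000 compounds, about 64 of them at 50% or above in at least one test.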
B: 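Lysine-tRNA ligase, Plasmodium falciparum 3D7 (UniProt Q8IDJ8). Enzyme assay of the cytosolic lysyl-tRNA synthetase in 384-well plates, read by luminescence. Concentration: 30 µM. Higher reads as stronger inhibition, judged from the few compounds that gave an IC50. About 69,000 compounds were tested under these conditions; 0.071% (about 49) showed 50% or more at least once.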
C: 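Coenzyme A biosynthesis protein CoaBC, Mycobacterium tuberculosis (UniProt P9WNZ1). Enzyme assay of CoaBC with a phosphate dye (Biomol Green) read at 650 nm. Tested at 30 µM. Direction is inferred from only a few compounds that gave an IC50; most scored high, so higher reads as stronger inhibition. Most strong results did not repeat in a second test. Of about 67,000 compounds tested this way, about 40 (0.06%) reached 50% or more in at least one test.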
D: 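Protease assay of ClpP1P2, read by the AMC dye that it sets free. Target: ClpP1P2, Mycobacterium tuberculosis (UniProt P9WPC5 and UniProt P9WPC3). Concentration: 50 µM. Higher reads as stronger inhibition, judged from the few compounds that gave an IC50. Most other retested compounds had strongly negative values. Size under these conditions: about 69,000 compounds, about 10 of them at 50% or above in at least one test.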
E: 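Histidine-tRNA ligase, Trypanosoma cruzi CL Brener (UniProt Q4DA54). Enzyme assay of histidyl-tRNA synthetase; the read-out is not stated. Tested at 30 µM. Direction is inferred from retests: higher values go with stronger inhibition. About 69,000 compounds were tested under these conditions; 0.045% (about 31) showed 50% or more at least once.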

For CCN(CC1CCCO1)C(=O)NCCNC(=O)c1ccccc1F (centres unmarked) the result was A: 3.979%; B: -3.916%; C: 6.399%; D: -22.49%; E: 1.493%.
For CN(Cc1cccs1)C(=O)CN1CCCC(Cn2cncn2)C1 (centres unmarked) the result was A: 13.78%; B: 2.739%; C: 4.54%; D: -20.86%; E: 14.86%.
For O=C1CC(c2ccccc2)c2cnn(C3CCCC3)c2N1 (centres unmarked) the result was A: 2.768%; B: -6.124%; C: 5.535%; D: -14.43%; E: 8.046%.
For O=C(c1ccc(F)cc1)N(CCCO)S(=O)(=O)c1cccs1 the result was A: 3.023%; B: -2.97%; C: 14.47%; D: -8.091%; E: 1.02%.
For Cc1cc(Cl)c(C)c(S(=O)(=O)N2CCN(Cc3ccncc3)CC2)c1Cl the result was A: 1.377%; B: -3.606%; C: 7.403%; D: -27.26%; E: -12.44%.
For Cc1ccc(C(=O)N2CCC3(CCC(=O)N(CC(C)O)C3)CC2)c(O)c1 (centres unmarked) the result was A: 0%; B: 7.231%; C: 1.276%; D: -8.947%; E: 4.018%.
For O=C(NCCc1cscn1)c1coc(CN2CCOCC2)c1 the result was A: 3.731%; B: 5.277%; C: 4.418%; D: 4.642%; E: 2.128%.
For Cc1nc(CN2CCCC(CCc3ccc(F)c(F)c3)C2)c[nH]1 (centres unmarked) the result was A: 2.673%; B: 5.142%; C: -26.19%; D: -6.827%; E: 9.184%.
For COCC(C)Nc1ccc(-c2nc(Cc3ccc(F)cc3)no2)cn1 (centres unmarked) the result was A: 0.7524%; B: -1.994%; C: -1.22%; D: -18.87%; E: 0%.
For CN(Cc1ccc(F)cc1)C(=O)Cn1nc(-c2ccc(F)cc2)oc1=O the result was A: 3.072%; B: -4.748%; C: -2.024%; D: 13.23%; E: 4.348%.
For Cc1cccc(CN2CCOC3(COCCN(CCN(C)C)C3)C2)n1 (centres unmarked) the result was A: 3.412%; B: 0.1645%; C: 1.607%; D: -8.898%; E: -1.02%.
For Cc1cc(C)n2nc(CC(=O)N[C@H]3C[C@H]4CN(C)CCN4C3)nc2n1 the result was A: -1.732%; B: 6.834%; C: 4.348%; D: 3.685%; E: 1.01%.
For COc1ccc(F)cc1C(=O)N1CCC2(CCC(=O)N(C(C)C)C2)CC1 the result was A: -1.715%; B: 0.4352%; C: 1.261%; D: 12.61%; E: 10%.
For O=C(c1ccoc1)N1CCCn2cnc(COCC3CC3)c2C1 the result was A: 0.4359%; B: 1.921%; C: 9.512%; D: 4.52%; E: 2.762%.

2 of the entries, repeated:

Compound,A,B,C,D,E
COc1ccc(F)cc1C(=O)N1CCC2(CCC(=O)N(C(C)C)C2)CC1,-1.715%,0.4352%,1.261%,12.61%,10%
CCN(CC1CCCO1)C(=O)NCCNC(=O)c1ccccc1F (centres unmarked),3.979%,-3.916%,6.399%,-22.49%,1.493%